Test results reported in patent publication US20130096107A1, “USE OF AMINODIHYDROTHIAZINES FOR THE TREATMENT OR PREVENTION OF DIABETES” (Hoffmann-La Roche Inc., priority 2009, published 2013).
For at least one compound, name, drawing or mass did not settle the structure.

System: Zucker Diabetic Fatty (ZDF) rats
Test: Oral glucose tolerance test (oGTT) after chronic treatment of ZDF rats
Format: in vivo, rat
Conditions: Liraglutide 0.4 mg/kg s.c.
Protocol: This study was conducted with male ZDF rats [ZDF/gmiCrl fa/fa] and lean rats [ZDF/gmiCrl fa/+] (Charles River Laboratories, Sulzfeld, Germany). The ZDF rats are a commonly used model of human type 2 diabetes characterized by insulin resistance, β-cell defects and hyperglycemia. Onset of diabetes in males is at the age of 8 to 10 weeks when fed a diabetogenic diet. All rats (ZDF and Lean rats) with an age of 6 weeks at the beginning of the experiment are fed a special diet (“PURINA PMI 5008”, ZDF_diet=Ssniff R/M−H) and housed 1 per cage (type 3). Ambient temperature is approximately 21° C. and relative humidity 55-65%. A 12 hours light-dark cycle is maintained in the rooms with all tests being performed during the light phase. Access to food and tap water is ad libitum.
Body weight and food intake were monitored daily. Blood glucose was measured weekly in all rats. After 3 weeks of treatment an oGTT was performed on 6 overnight fasted rats per groups. At about week 4 and after anesthesia, 2 to 3 ZDF rats per day and per group underwent pancreas surgery and in-situ pancreas perfusion with low/high glucose conditions. 120 eluted fractions per rat were collected for glucose and insulin quantification.
An oGTT was conducted on day 18 of treatment. After on overnight fast of approximately 16 h post treatment, rats were given a glucose load of 2 g/kg by gavage. Blood samples were collected immediately prior to glucose challenge (0 min) and +10, +30, +60 and +120 min after glucose challenge and blood glucose and other plasma parameters were determined.
Blood glucose was measured with a blood glucose monitoring system (Accu-Chek Aviva, Roche Diagnostics GmbH, Rotkreuz, Switzerland). Insulin was measured by ELISA, using the Mercodia Rat Insulin ELISA (Mercodia AB, Uppsala, Sweden).
Data were analyzed using the software SAS/JMP for Windows (version 6.0.0, SAS Institute Inc., Cary, N.C.). Data were expressed as mean±SEM (standard error of the mean). The number of rats was 6 per group. Comparison was made versus Vehicle, using Analysis of Variance ANOVA followed by post hoc Dunnett's test.

CCCCCCCCCCCCCCCC(=O)N[C@@H](CCC(=O)NCCCC[C@H](NC(=O)[C@H](C)NC(=O)[C@H](C)NC(=O)[C@H](CCC(N)=O)NC(=O)CNC(=O)[C@H](CCC(=O)O)NC(=O)[C@H](CC(C)C)NC(=O)[C@H](Cc1ccc(O)cc1)NC(=O)[C@H](CO)NC(=O)[C@H](CO)NC(=O)[C@@H](NC(=O)[C@H](CC(=O)O)NC(=O)[C@H](CO)NC(=O)[C@@H](NC(=O)[C@H](Cc1ccccc1)NC(=O)[C@@H](NC(=O)CNC(=O)[C@H](CCC(=O)O)NC(=O)[C@H](C)NC(=O)[C@@H](N)Cc1cnc[nH]1)[C@@H](C)O)[C@@H](C)O)C(C)C)C(=O)N[C@@H](CCC(=O)O)C(=O)N[C@@H](Cc1ccccc1)C(=O)N[C@H](C(=O)N[C@@H](C)C(=O)N[C@@H](Cc1c[nH]c2ccccc12)C(=O)N[C@@H](CC(C)C)C(=O)N[C@H](C(=O)N[C@@H](CCCNC(=N)N)C(=O)NCC(=O)N[C@@H](CCCNC(=N)N)C(=O)NCC(=O)O)C(C)C)[C@@H](C)CC)C(=O)O [Liraglutide, reference compound]
fasting insulin levels (8.5 week old ZDF rats treated 17 days, Example 1 p.o.): decreased both fasting and post-challenge insulin levels
insulin levels during oGTT (post glucose challenge) (8.5 week old ZDF rats treated 17 days, glucose 2 g/kg, Example 1 0.2, 5, 30 mg/kg p.o.): decreased both fasting and post-challenge insulin levels
fasting blood glucose (FBG) after overnight fasting (8.5 week old ZDF rats, Example 1 0.2-5-30 mg/kg p.o., 17 days): statistically non significant tendency towards FBG reduction
